Results from the supplement of paper PMC7661543.
± gives the standard deviation of the averaged measurements. The effect of the compound repeats well; differences between the knockouts mostly do not.

Test system: SKBR3
Experiment: relative cell number vs DMSO control (72 h) (% of DMSO); higher = less growth inhibition (more cells)
Protocol: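 QMAP-Seq: a pool of 5 breast cancer cell lines (ZR-75-1, SKBR3, HCC-38, MDA-MB-231, BT-20), each carrying 12 doxycycline-inducible Cas9 sgRNA perturbations (11 knockouts plus non-targeting sgNT), was treated with compounds for 72 h at four 10-fold doses (10 nM-10 uM or 1 nM-1 uM range). Barcodes were amplified and sequenced, and cell number was interpolated from 293T spike-in standard curves. The result is expressed as % of the median of DMSO wells. Two biological replicates.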

[1] = sgRNA knockout: sgATF3, 1000 nM
[2] = sgRNA knockout: sgATF3, 10000 nM
[3] = sgRNA knockout: sgATF4, 1000 nM
[4] = sgRNA knockout: sgATF4, 10000 nM
[5] = sgRNA knockout: sgATF6, 1000 nM
[6] = sgRNA knockout: sgATF6, 10000 nM
[7] = sgRNA knockout: sgATG7, 1000 nM
[8] = sgRNA knockout: sgATG7, 10000 nM
[9] = sgRNA knockout: sgERN1, 1000 nM
[10] = sgRNA knockout: sgERN1, 10000 nM
[11] = sgRNA knockout: sgHSF1, 1000 nM
[12] = sgRNA knockout: sgHSF1, 10000 nM
[13] = sgRNA knockout: sgHSF2, 1000 nM
[14] = sgRNA knockout: sgHSF2, 10000 nM
[15] = sgRNA knockout: sgKEAP1, 100 nM
[16] = sgRNA knockout: sgKEAP1, 1000 nM
[17] = sgRNA knockout: sgKEAP1, 10000 nM
[18] = sgRNA knockout: sgNFE2L2, 10 nM
[19] = sgRNA knockout: sgNFE2L2, 100 nM
[20] = sgRNA knockout: sgNFE2L2, 1000 nM
[21] = sgRNA knockout: sgNFE2L2, 10000 nM
[22] = sgRNA knockout: sgSLC35F2, 10 nM
[23] = sgRNA knockout: sgSLC35F2, 100 nM
[24] = sgRNA knockout: sgSLC35F2, 1000 nM
[25] = sgRNA knockout: sgSLC35F2, 10000 nM
[26] = sgRNA knockout: sgXBP1, 1000 nM
[27] = sgRNA knockout: sgXBP1, 10000 nM

CC(C)CC(=O)Nc1n[nH]c2c1CN(C(=O)C1CCN(C)CC1)C2(C)C showed a relative cell number (sgRNA knockout: sgATF3, 10 nM) of 119 ± 45, a relative cell number (sgRNA knockout: sgATF3, 100 nM) of 59 ± 18 and a relative cell number [1] of 39.4 ± 2.3. The relative cell number [2] was 7.26 ± 3.4, the relative cell number (sgRNA knockout: sgATF4, 10 nM) was 84.5 ± 16 and the relative cell number (sgRNA knockout: sgATF4, 100 nM) was 67.7 ± 9.4. The relative cell number [3] was 38.2 ± 2.4, the relative cell number [4] was 11.7 ± 2.1 and the relative cell number (sgRNA knockout: sgATF6, 10 nM) was 105 ± 24. For the same compound, the relative cell number (sgRNA knockout: sgATF6, 100 nM) was 81.6 ± 3.4, the relative cell number [5] was 29.6 ± 9.3 and the relative cell number [6] was 7.12 ± 2.6. For the same compound, the relative cell number (sgRNA knockout: sgATG7, 10 nM) was 104 ± 16, the relative cell number (sgRNA knockout: sgATG7, 100 nM) was 71.5 ± 31 and the relative cell number [7] was 44.1 ± 4.5. It also gave a relative cell number [8] of 7.03 ± 0.39, a relative cell number (sgRNA knockout: sgERN1, 10 nM) of 85.5 ± 33 and a relative cell number (sgRNA knockout: sgERN1, 100 nM) of 65.2 ± 2.6. For the same compound, the relative cell number [9] was 38.9 ± 5.2, the relative cell number [10] was 7.68 ± 1.4 and the relative cell number (sgRNA knockout: sgHSF1, 10 nM) was 97.6 ± 26. It also gave a relative cell number (sgRNA knockout: sgHSF1, 100 nM) of 70.5 ± 18, a relative cell number [11] of 30.3 ± 0.52 and a relative cell number [12] of 8.32 ± 1.2. For the same compound, the relative cell number (sgRNA knockout: sgHSF2, 10 nM) was 92.5 ± 26, the relative cell number (sgRNA knockout: sgHSF2, 100 nM) was 62.8 ± 1.9 and the relative cell number [13] was 32.1 ± 8.3. The relative cell number [14] was 7.41 ± 1.4, the relative cell number (sgRNA knockout: sgKEAP1, 10 nM) was 97.2 ± 6.3 and the relative cell number [15] was 64.7 ± 3.9. For the same compound, the relative cell number [16] was 38 ± 3.5, the relative cell number [17] was 11 ± 2.6 and the relative cell number [18] was 92.8 ± 21. It also gave a relative cell number [19] of 76.6 ± 34, a relative cell number [20] of 37 ± 2.5 and a relative cell number [21] of 8.44 ± 0.63. The relative cell number [22] was 102 ± 25, the relative cell number [23] was 71.9 ± 28 and the relative cell number [24] was 38.3 ± 16. It also gave a relative cell number [25] of 8.23 ± 4, a relative cell number (sgRNA knockout: sgXBP1, 10 nM) of 113 ± 39 and a relative cell number (sgRNA knockout: sgXBP1, 100 nM) of 80.5 ± 16. For the same compound, the relative cell number [26] was 43.7 ± 5.8 and the relative cell number [27] was 9.48 ± 5.9.
Fc1ccc(CNc2ncnc3ccc(F)cc23)cc1 [Spautin1] showed a relative cell number (sgRNA knockout: sgATF3, 10 nM) of 104 ± 1.6, a relative cell number (sgRNA knockout: sgATF3, 100 nM) of 76.7 ± 1.4 and a relative cell number [1] of 97.1 ± 1.9. It also gave a relative cell number [2] of 101 ± 16, a relative cell number (sgRNA knockout: sgATF4, 10 nM) of 104 ± 4.7 and a relative cell number (sgRNA knockout: sgATF4, 100 nM) of 97 ± 20. For the same compound, the relative cell number [3] was 98.9 ± 18, the relative cell number [4] was 89.2 ± 9.3 and the relative cell number (sgRNA knockout: sgATF6, 10 nM) was 102 ± 6.9. It also gave a relative cell number (sgRNA knockout: sgATF6, 100 nM) of 92.4 ± 16, a relative cell number [5] of 95.8 ± 9.3 and a relative cell number [6] of 88.2 ± 8.1. It also gave a relative cell number (sgRNA knockout: sgATG7, 10 nM) of 99 ± 5.1, a relative cell number (sgRNA knockout: sgATG7, 100 nM) of 85.5 ± 7.1 and a relative cell number [7] of 87.4 ± 19. The relative cell number [8] was 112 ± 12, the relative cell number (sgRNA knockout: sgERN1, 10 nM) was 98.2 ± 5.6 and the relative cell number (sgRNA knockout: sgERN1, 100 nM) was 93.1 ± 5.3. For the same compound, the relative cell number [9] was 91 ± 16, the relative cell number [10] was 77.1 ± 4 and the relative cell number (sgRNA knockout: sgHSF1, 10 nM) was 84.8 ± 8.3. For the same compound, the relative cell number (sgRNA knockout: sgHSF1, 100 nM) was 90.91 ± 0.14, the relative cell number [11] was 96.4 ± 7.8 and the relative cell number [12] was 106 ± 25. It also gave a relative cell number (sgRNA knockout: sgHSF2, 10 nM) of 86.4 ± 9.6, a relative cell number (sgRNA knockout: sgHSF2, 100 nM) of 99 ± 11 and a relative cell number [13] of 103 ± 12. The relative cell number [14] was 79.8 ± 17, the relative cell number (sgRNA knockout: sgKEAP1, 10 nM) was 112 ± 20 and the relative cell number [15] was 109 ± 6.2. It also gave a relative cell number [16] of 90.7 ± 18, a relative cell number [17] of 83.1 ± 3.6 and a relative cell number [18] of 97.3 ± 5.7. For the same compound, the relative cell number [19] was 95.22 ± 0.63, the relative cell number [20] was 99.1 ± 30 and the relative cell number [21] was 95.9 ± 31. For the same compound, the relative cell number [22] was 97.3 ± 3.9, the relative cell number [23] was 95.4 ± 18 and the relative cell number [24] was 97.7 ± 29. The relative cell number [25] was 87 ± 6.7, the relative cell number (sgRNA knockout: sgXBP1, 10 nM) was 113 ± 20 and the relative cell number (sgRNA knockout: sgXBP1, 100 nM) was 82 ± 24. It also gave a relative cell number [26] of 94.1 ± 9.6 and a relative cell number [27] of 104 ± 30.
